From doi:10.1101/2023.08.14.553183
No constants are given. Whether binding was seen depends on the method and setting. In cells and extracts the contact can be indirect. Here binding means that the protein was enriched with, or labelled near, the bait; the list need not be complete. Where a sequence is shown, tags or fusion partners need not be part of it.

T1: FLAG-HA-ER-tagged SAMD1 (estrogen-receptor (ER)-SAMD1 fusion protein), stably expressed in PaTu8988t SAMD1 KO cells (UniProt Q6SPF0)
T1 sequence: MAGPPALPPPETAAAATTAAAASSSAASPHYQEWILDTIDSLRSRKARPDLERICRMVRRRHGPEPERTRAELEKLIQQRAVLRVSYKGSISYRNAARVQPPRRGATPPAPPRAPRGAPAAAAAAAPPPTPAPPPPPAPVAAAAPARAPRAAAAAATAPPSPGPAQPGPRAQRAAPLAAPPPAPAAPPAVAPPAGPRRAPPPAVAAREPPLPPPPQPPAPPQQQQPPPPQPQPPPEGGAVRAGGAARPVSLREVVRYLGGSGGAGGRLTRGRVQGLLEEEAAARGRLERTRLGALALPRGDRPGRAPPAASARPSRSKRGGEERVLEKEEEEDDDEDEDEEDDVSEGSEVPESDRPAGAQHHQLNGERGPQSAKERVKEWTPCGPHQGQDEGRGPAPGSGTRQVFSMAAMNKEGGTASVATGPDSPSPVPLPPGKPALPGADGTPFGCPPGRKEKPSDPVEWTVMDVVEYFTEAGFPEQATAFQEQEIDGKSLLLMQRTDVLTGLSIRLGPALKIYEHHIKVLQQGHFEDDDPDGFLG

B1: L3MBTL4, endogenous in PaTu8988t cells (protein, UniProt Q8NA19 1-623)
chain: MKQPNRKRKLNMDSKERLDQDGRLEQAEEEKKPKDSTTPLSHVPSAAAQGAWSWEWYLKEQKAVAAPVELFSKDQSFPEHENGFQIGMRLEGIDPRHPSVFCVLSVAEVCGYRLRLHFDGYLSCYDFWTNAGSPDIHPVGWCEKTKHELHIPKGYRKDKFVWMDYLKACKLQNAPKKLFRNRSPNGPMSKEFQVGMKLEAVDRKNPSLVCVATIADIVEDRLLVHFDNWDDSYDYWCDVNSPYVQPVGWCQENGRTLIAPQGYPNPENFSWTEYLEATQTNAVPAKVFKMRLPHGFLPNMKLEVVDKRNPRLIRVATIVDVDDQRVKVHFDGWDHKYDYWVEADSPDIHPIGWCDVTGHPLEVPQRTNDLKILPGQAVCPTPGCRGIGHIRGPRYSGHHSAFGCPYSDMNLKKEATLHDRLREQTQANLESDSSHSKSKSLCSLNFNGKHEKVNSQPRLVQQAKCLKIKGKEDIDLDNLFRVLVLHPRGLEYSVEQAQQVLHQSVSMSTVSAHPFRDLPLGREQHCKLLPGVADIRASQVARWTVDEVAEFVQSLLGCEEHAKCFKKEQIDGKAFLLLTQTDIVKVMKIKLGPALKIYNSILMFRHSQELPEEDIASGQEVRG
B2: F-box only protein 11 (FBXO11), endogenous in PaTu8988t cells (protein, UniProt Q86XK2 1-927)
chain: MNSVRAANRRPRRVSRPRPVQQQQQQPPQQPPPQPPQQQPPQQQPPPPPQQQQQQQPPPPPPPPPPLPQERNNVGERDDDVPADMVAEESGPGAQNSPYQLRRKTLLPKRTACPTKNSMEGASTSTTENFGHRAKRARVSGKSQDLSAAPAEQYLQEKLPDEVVLKIFSYLLEQDLCRAACVCKRFSELANDPILWKRLYMEVFEYTRPMMHPEPGKFYQINPEEYEHPNPWKESFQQLYKGAHVKPGFAEHFYSNPARYKGRENMLYYDTIEDALGGVQEAHFDGLIFVHSGIYTDEWIYIESPITMIGAAPGKVADKVIIENTRDSTFVFMEGSEDAYVGYMTIRFNPDDKSAQHHNAHHCLEITVNCSPIIDHCIIRSTCTVGSAVCVSGQGACPTIKHCNISDCENVGLYITDHAQGIYEDNEISNNALAGIWVKNHGNPIIRRNHIHHGRDVGVFTFDHGMGYFESCNIHRNRIAGFEVKAYANPTVVRCEIHHGQTGGIYVHEKGRGQFIENKIYANNFAGVWITSNSDPTIRGNSIFNGNQGGVYIFGDGRGLIEGNDIYGNALAGIQIRTNSCPIVRHNKIHDGQHGGIYVHEKGQGVIEENEVYSNTLAGVWVTTGSTPVLRRNRIHSGKQVGVYFYDNGHGVLEDNDIYNHMYSGVQIRTGSNPKIRRNKIWGGQNGGILVYNSGLGCIEDNEIFDNAMAGVWIKTDSNPTLRRNKIHDGRDGGICIFNGGRGLLEENDIFRNAQAGVLISTNSHPILRKNRIFDGFAAGIEITNHATATLEGNQIFNNRFGGLFLASGVNVTMKDNKIMNNQDAIEKAVSRGQCLYKISSYTSYPMHDFYRCHTCNTTDRNAICVNCIKKCHQGHDVEFIRHDRFFCDCGAGTLSNPCTLAGEPTHDTDTLYDSAPPIESNTLQHN
B3: L3MBTL3, endogenous in PaTu8988t cells (protein, UniProt Q96JM7 1-780)
chain: MTESASSTSGQEFDVFSVMDWKDGVGTLPGSDLKFRVNEFGALEVITDENEMENVKKATATTTWMVPTAQEAPTSPPSSRPVFPPAYWTSPPGCPTVFSEKTGMPFRLKDPVKVEGLQFCENCCQYGNVDECLSGGNYCSQNCARHIKDKDQKEERDVEEDNEEEDPKCSRKKKPKLSLKADTKEDGEERDDEMENKQDVRILRGSQRARRKRRGDSAVLKQGLPPKGKKAWCWASYLEEEKAVAVPAKLFKEHQSFPYNKNGFKVGMKLEGVDPEHQSVYCVLTVAEVCGYRIKLHFDGYSDCYDFWVNADALDIHPVGWCEKTGHKLHPPKGYKEEEFNWQTYLKTCKAQAAPKSLFENQNITVIPSGFRVGMKLEAVDKKNPSFICVATVTDMVDNRFLVHFDNWDESYDYWCEASSPHIHPVGWCKEHRRTLITPPGYPNVKHFSWDKYLEETNSLPAPARAFKVKPPHGFQKKMKLEVVDKRNPMFIRVATVADTDDHRVKVHFDGWNNCYDYWIDADSPDIHPVGWCSKTGHPLQPPLSPLELMEASEHGGCSTPGCKGIGHFKRARHLGPHSAANCPYSEINLNKDRIFPDRLSGEMPPASPSFPRNKRTDANESSSSPEIRDQHADDVKEDFEERTESEMRTSHEARGAREEPTVQQAQRRSAVFLSFKSPIPCLPLRWEQQSKLLPTVAGIPASKVSKWSTDEVSEFIQSLPGCEEHGKVFKDEQIDGEAFLLMTQTDIVKIMSIKLGPALKIFNSILMFKAAEKNSHNEL

Biological target: T1, FLAG-HA-ER-tagged SAMD1 (estrogen-receptor (ER)-SAMD1 fusion protein), stably expressed in PaTu8988t SAMD1 KO cells
Experiment: affinity purification with mass spectrometry

binding, binds:
SKP1, endogenous in PaTu8988t cells (from UniProt P63208 1-163)
B1
B2
B3
